According to patent US20260226160A1:
Results are given in words; binding and its absence hold for the method and conditions named. Some entries that bind do so weakly or less than the wild type.

Amino acid sequences for entries named in this document (tags omitted). A change or cut given only in a name is not applied to a line headed by its entry. Residues count along the entry.
UniProt Q9NZC2, residues 19-174: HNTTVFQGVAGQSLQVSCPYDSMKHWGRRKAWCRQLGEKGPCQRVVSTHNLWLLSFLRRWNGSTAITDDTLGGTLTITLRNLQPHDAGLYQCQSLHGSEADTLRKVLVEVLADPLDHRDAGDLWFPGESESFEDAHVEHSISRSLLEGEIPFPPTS

Key:
[1] = molecular target: T1, epitope peptide from the human TREM2 stalk region (…) (human); test: ELISA, coated epitope peptide
T1 sequence (peptide): DAGDLWFPG

[2] = molecular target: extracellular domain of human TREM2 (ecTREM2), Hölzel Diagnostika 11084-H08H (human) (UniProt Q9NZC2); test: ELISA, coated ecTREM2

B1: antibody M03 (clone M03), fully human IgG1-LALA (antibody, V domains shown)
VH: EVQLVQSGGGLVQPGGSLRLSCAASGFTFSSYGITWVRQAPGKGLEWVSFISGGGSYTYYADSVKGRFTISRDNAKRTLYLQMNSLRAEDTAVYYCARSGRAYFDYWGQGTLVTVSS
VL: DIRLTQPPSVSGAPGQRVTISCSGSSSNIGSLFVSWYQQLPGTAPKLLIYSNSQHPSGVPDRFSGSKSGTSASLAITGLQAEDEADYYCSAYDQFSNSVVFGGGTKLTVLG
Question: What does the source list for B1?
Answer: binding [1]: binds; binding [2]: binds
